Measured values reported in publication PMC7532686.
Results are given in words; binding and its absence hold for the method and conditions named. In cells and extracts the contact can be indirect. Some results given as binding are weak or reduced against the parent protein; the word gives no strength.

Target: T1, Cysteine-rich protein 2 (CSRP2) (UniProt Q16527)
T1 sequence: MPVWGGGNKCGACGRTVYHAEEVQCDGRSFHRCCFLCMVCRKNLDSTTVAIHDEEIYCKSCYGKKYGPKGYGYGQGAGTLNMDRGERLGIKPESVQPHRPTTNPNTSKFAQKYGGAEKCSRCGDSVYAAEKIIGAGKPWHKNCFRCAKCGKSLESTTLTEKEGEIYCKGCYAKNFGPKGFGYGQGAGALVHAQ
Assay: co-IP; HCT116/CSRP2 cells lysed in cold RIPA buffer; anti-CSRP2 (or anti-p130Cas) antibody overnight at 4 °C, captured on protein A beads; SDS-PAGE and Western blot

B1: p130Cas (protein, UniProt P56945 1-870)
chain: MNHLNVLAKALYDNVAESPDELSFRKGDIMTVLEQDTQGLDGWWLCSLHGRQGIVPGNRLKILVGMYDKKPAGPGPGPPATPAQPQPGLHAPAPPASQYTPMLPNTYQPQPDSVYLVPTPSKAQQGLYQVPGPSPQFQSPPAKQTSTFSKQTPHHPFPSPATDLYQVPPGPGGPAQDIYQVPPSAGMGHDIYQVPPSMDTRSWEGTKPPAKVVVPTRVGQGYVYEAAQPEQDEYDIPRHLLAPGPQDIYDVPPVRGLLPSQYGQEVYDTPPMAVKGPNGRDPLLEVYDVPPSVEKGLPPSNHHAVYDVPPSVSKDVPDGPLLREETYDVPPAFAKAKPFDPARTPLVLAAPPPDSPPAEDVYDVPPPAPDLYDVPPGLRRPGPGTLYDVPRERVLPPEVADGGVVDSGVYAVPPPAEREAPAEGKRLSASSTGSTRSSQSASSLEVAGPGREPLELEVAVEALARLQQGVSATVAHLLDLAGSAGATGSWRSPSEPQEPLVQDLQAAVAAVQSAVHELLEFARSAVGNAAHTSDRALHAKLSRQLQKMEDVHQTLVAHGQALDAGRGGSGATLEDLDRLVACSRAVPEDAKQLASFLHGNASLLFRRTKATAPGPEGGGTLHPNPTDKTSSIQSRPLPSPPKFTSQDSPDGQYENSEGGWMEDYDYVHLQGKEEFEKTQKELLEKGSITRQGKSQLELQQLKQFERLEQEVSRPIDHDLANWTPAQPLAPGRTGGLGPSDRQLLLFYLEQCEANLTTLTNAVDAFFTAVATNQPPKIFVAHSKFVILSAHKLVFIGDTLSRQAKAADVRSQVTHYSNLLCDLLRGIVATTKAAALQYPSPSAAQDMVERVKELGHSTQQFRRVLGQLAAA
In the case of B1, the binding is reported as “binds”.
